Data source: PubChem BioAssay AID1259308 (NCATS, 2017)

- Screen: 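Candidate targets for better recombinant protein yield in mammalian cells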 (primary screen)
- Cell system: human HEK293 embryonic kidney cells stably expressing firefly luciferase (HEK-CMV-Luc2-Hygro)
- Reagent: single siRNA against human genes, 0.8 pmol siRNA per well
- Time to read-out: 72 h
- Read-out: 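Luciferase light (ONE-Glo) measured on one replicate plate set and viability (CellTiter-Glo) on the other, scaled to a negative control siRNA, with robust z-scores and luciferase per cell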
- Direction: total luciferase, z-score and total luciferase, % of control: higher = more reporter protein produced
- Hit rule: 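An siRNA counts as active if its total luciferase robust z-score exceeds 3; genes with two or more such siRNAs out of three were retested with fresh siRNAs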
- Meaning of the calls: active = raised luciferase; inactive = no rise
The whole screen tested about 59,000 reagents; this is a random part of them. About 1,510 of them (2.6%) count as active. 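Calls use total luciferase alone and ignore viability, so some active siRNAs may act by altering cell number.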 Reagents against one gene are numbered here. Not all columns of the deposit are shown.

{"gene knocked down":"DNAJB2 (DnaJ heat shock protein family (Hsp40) member B2)","siRNA no.":1,"total luciferase, z-score":-0.434,"total luciferase, % of control":73.3,"call":"inactive"}
{"gene knocked down":"DNAJB2 (DnaJ heat shock protein family (Hsp40) member B2)","siRNA no.":2,"total luciferase, z-score":1.23,"total luciferase, % of control":106,"call":"inactive"}
{"gene knocked down":"DNAJB2 (DnaJ heat shock protein family (Hsp40) member B2)","siRNA no.":3,"total luciferase, z-score":0.0842,"total luciferase, % of control":83.6,"call":"inactive"}
{"gene knocked down":"SYNE4 (spectrin repeat containing nuclear envelope family member 4)","siRNA no.":1,"total luciferase, z-score":0.952,"total luciferase, % of control":101,"call":"inactive"}
{"gene knocked down":"SYNE4 (spectrin repeat containing nuclear envelope family member 4)","siRNA no.":2,"total luciferase, z-score":1.14,"total luciferase, % of control":105,"call":"inactive"}
{"gene knocked down":"SYNE4 (spectrin repeat containing nuclear envelope family member 4)","siRNA no.":3,"total luciferase, z-score":1.06,"total luciferase, % of control":103,"call":"inactive"}
{"gene knocked down":"GRXCR2 (glutaredoxin and cysteine rich domain containing 2)","siRNA no.":1,"total luciferase, z-score":0.574,"total luciferase, % of control":93.3,"call":"inactive"}
{"gene knocked down":"GRXCR2 (glutaredoxin and cysteine rich domain containing 2)","siRNA no.":2,"total luciferase, z-score":0.516,"total luciferase, % of control":92.1,"call":"inactive"}
{"gene knocked down":"GRXCR2 (glutaredoxin and cysteine rich domain containing 2)","siRNA no.":3,"total luciferase, z-score":-1.51,"total luciferase, % of control":52,"call":"inactive"}
{"gene knocked down":"NFATC2 (nuclear factor of activated T cells 2)","siRNA no.":1,"total luciferase, z-score":-0.564,"total luciferase, % of control":70.7,"call":"inactive"}
{"gene knocked down":"NFATC2 (nuclear factor of activated T cells 2)","siRNA no.":2,"total luciferase, z-score":-0.0724,"total luciferase, % of control":80.4,"call":"inactive"}
{"gene knocked down":"NFATC2 (nuclear factor of activated T cells 2)","siRNA no.":3,"total luciferase, z-score":2.05,"total luciferase, % of control":123,"call":"inactive"}
